Measurements published in PubChem BioAssay AID1347076 (National Center for Advancing Translational Sciences (NCATS), 2019).
Among all 400,000 compounds or so, about 13,000 (3.2%) were called active. This list was built around the results that the source calls inconclusive (neither active nor inactive); the mix of calls is not that of the screen. The call rests on the fitted dose curve; in most records, active means well fitted cell-killing curve with a large enough effect; inconclusive means small, poorly fitted or top-dose-only effect, or effect the other way; inactive means flat fitted curve, though single readings scatter. A potency beside an inconclusive call is a rough fit, not a confirmed value.
On the % scale 0 is the no-effect control and ±100 the full control effect; potency means the concentration at half of the fitted maximal effect.

Assay: qHTS assay for MDR1-selective chemotherapeutics: Primary screen using the drug-selected MDR subline cells KB-V1; further: nearly all actives have a fitted effect of over 60% in size
Conditions: KB-V1 MDR cells viability, CellTiter-Glo, 72 h; activity change, negative = cytotoxicity: at 46.1 µM (top of the series)
How it was run: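 Readout: CellTiter-Glo luminescence, 10 min after addition. Cells: KB-V1 MDR subline, 72 h at 37 degrees C with compound. Analysis: corrected, normalized data fitted to concentration-effect curves.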
In the case of `CCC(C(=O)OCC(=O)Nc1cccc(OC)c1)c1ccccc1` (centres undefined), the Potency is reported as inconclusive: 29.1 µM [rising, single point]. For `CC1C(=O)N(Cc2cn(CC3CCCCC3)nn2)CCS(=O)(=O)N1Cc1ccc(-c2ccc(Cl)cc2)cc1` (centres undefined), the Potency was active: 18.4 µM. In the case of `COc1ccc(NS(=O)(=O)c2ccc(OC)c(N(C)S(=O)(=O)c3ccc(Cl)cc3)c2)cc1`, the Potency is reported as inconclusive: 29.1 µM [cytotoxic, single point]. For `COc1ccc(C(=O)OCC2CC(c3ccccc3)N(C)O2)cc1` (centres undefined), the Potency was inconclusive: 14.6 µM [cytotoxic, single point]. For `Cc1ccc2c(c1)/C(=N/OS(=O)(=O)c1ccccc1)CCS2`, the activity change, negative = cytotoxicity was inconclusive: 30.4%. For `COc1ccc(OCC(=O)N2CCCC(CO)(CCOc3ccccc3)C2)cc1` (centres undefined), the Potency was inconclusive: 11.6 µM [cytotoxic, partial curve]. For `O=[N+]([O-])c1cc(C(F)(F)F)ccc1NCCc1ccccn1`, the Potency was inconclusive: 20.6 µM [cytotoxic, single point]. In the case of `Cc1c(Cl)cccc1N/C(=N/S(=O)(=O)c1cccs1)c1ccccc1`, the Potency is reported as inconclusive: 16.4 µM [cytotoxic, single point]. With `CCN(CC)c1ccc(NC(=O)CSc2nc(C3CC3)nc3ccccc23)cc1C` the Potency was active: 6.51 µM. With `COc1ccccc1OCCNC(=O)c1ccc(C)c(S(=O)(=O)N2CCOCC2)c1` the “activity change, negative = cytotoxicity” value was inactive: -29.3%. In the case of `O=C(Nc1ccc(OC(F)F)cc1)c1cc(S(=O)(=O)N2CCOCC2)ccc1F`, the Potency is reported as inconclusive: 29.1 µM [cytotoxic, single point]. In the case of `COCCNC(=O)c1cccc(OC2CCN(Cc3ccc(OC(F)F)cc3)CC2)c1`, the Potency is reported as inconclusive: 8.2 µM [cytotoxic, partial curve]. With `Cn1c(C(=O)N2CCCC2)cc2c(=O)n(C)c3ccccc3c21` the Potency was inconclusive: 18.4 µM [rising, single point]. For `CC=CCn1c(SCCCc2ccccc2)nc2c1c(=O)[nH]c(=O)n2C`, the Potency was inconclusive: 29.1 µM [cytotoxic, single point]. In the case of `Cc1cccc(NC(=O)c2cc(-c3cc(C)cc(C)c3O)n[nH]2)c1`, the Potency is reported as inconclusive: 14.6 µM [cytotoxic, single point]. In the case of `Cc1cc(Br)ccc1NC(=S)Nc1cccc([N+](=O)[O-])c1`, the Potency is reported as inconclusive: 18.4 µM [cytotoxic, single point]. With `CN(Cc1ccccc1)C(=O)c1[nH]cnc1C(=O)Nc1ccon1` the Potency was inconclusive: 3.66 µM [rising, partial curve, poor fit]. For `CC(=O)CCc1ccc(OCCCCN2CCC(Cc3ccccc3)CC2)cc1`, the Potency was inconclusive: 4.61 µM [cytotoxic, partial curve, poor fit]. For `Cc1ccc(OCC(=O)NC2CC(C)(C)NC(C)(C)C2)cc1C`, the Potency was inconclusive: 6.51 µM [rising, partial curve]. In the case of `Cn1c(C(=O)Nc2ccc3c(c2)OCCO3)cc2sccc21`, the Potency is reported as active: 14.6 µM. In the case of `CC(C)Sc1nc2ccccc2n1CC(=O)NCc1ccc2c(c1)OCO2`, the Potency is reported as active: 14.6 µM. With `O=C(CCl)N1c2ccccc2Sc2ccc3ccccc3c21` the Potency was inconclusive: 29.1 µM [cytotoxic, single point]. For `COc1cccc2sc(NC(=O)c3ccc(Br)s3)nc12`, the “activity change, negative = cytotoxicity” value was inactive: -10.8%. With `Cc1ccc2c(CC(=O)Nc3ccc(N4CCN(C)CC4)cc3C)coc2c1` the Potency was inconclusive: 29.1 µM [cytotoxic, single point]. For `O=C(CN1C(=O)NC(c2ccccc2)(c2ccccc2)C1=O)NCc1ccco1`, the “activity change, negative = cytotoxicity” value was inactive: 8.1%. In the case of `CCOC(=O)C1=C(C)NC(=NC)SC1c1ccccc1` (centres undefined), the Potency is reported as inconclusive: 16.4 µM [cytotoxic, single point]. With `COCCNc1sc(S(=O)(=O)c2ccc(C)cc2)nc1S(=O)(=O)c1ccc(C)cc1` the Potency was inconclusive: 29.1 µM [cytotoxic, single point]. In the case of `COCCNC(=S)Nc1cc(OC)c(NC(=O)c2ccco2)cc1OC`, the Potency is reported as inconclusive: 29.1 µM [rising, single point]. For `CCOC(=O)c1ccccc1NC(=O)C1CCN(c2ncnc3sc(C)c(C)c23)CC1`, the Potency was active: 23.1 µM. For `COc1cccc(-n2nnc3c(=O)n(Cc4ccccc4Cl)cnc32)c1`, the Potency was active: 18.4 µM. With `NC(=O)c1ccc2c(c1)S(=O)(=O)c1ccccc1C2=O` the Potency was inconclusive: 29.1 µM [cytotoxic, single point]. For `CCOc1cc(/C=C(\C#N)C(=O)Nc2cccc(C(=O)O)c2)ccc1OCc1ccccc1Cl`, the Potency was inconclusive: 29.1 µM [rising, single point]. For `Cc1cccc(-n2c(C)cc(C(=O)NC3CCCCC3)c2C)c1`, the “activity change, negative = cytotoxicity” value was inactive: -1.45%. With `COC(=O)[C@]12CCCCC=C1N(CCc1ccc(OC)c(OC)c1)C(=O)[C@H](CC(=O)NCc1ccccc1)C2` the Potency was inconclusive: 5.8 µM [cytotoxic, partial curve]. With `Cc1ccc2c(c1)N=C(c1ccccc1)CC(C(Cl)Cl)=N2` the Potency was inconclusive: 20.6 µM [cytotoxic, single point]. In the case of `COCc1ccc(C(=O)N(C)C2CCCN(Cc3ccccc3F)C2)o1` (centres undefined), the Potency is reported as inconclusive: 29.1 µM [cytotoxic, single point]. With `CC1=C(C#N)C(C)(C)C(C#N)=C(C)N1` the “activity change, negative = cytotoxicity” value was inactive: 19.5%. With `CCc1ccc(NC(=O)C(CC)n2c(=O)c(C(F)(F)F)nc3ccccc32)cc1` (centres undefined) the “activity change, negative = cytotoxicity” value was inactive: 4.62%. With `CCCCNc1c(-c2ccccn2)nc2nc(C)cc(C)n12` the Potency was inconclusive: 2.31 µM [cytotoxic, full curve, poor fit]. For `COc1cc(NS(=O)(=O)c2ccc3[nH]c4c(c3c2)CCCCCC4)cc(OC)c1`, the Potency was inconclusive: 23.1 µM [cytotoxic, single point]. With `COc1cc2c(cc1OC)CN(C(=O)C(C)(C)C)CC2` the Potency was inconclusive: 23.1 µM [cytotoxic, single point]. With `O=c1[nH]cc(S(=O)(=O)N2CCN(c3ccccc3F)CC2)c(=O)[nH]1` the “activity change, negative = cytotoxicity” value was inactive: 16.7%. For `CCOC(=O)c1c(C2CC2)csc1NC(=O)COC(=O)c1cnc(Cl)c(Cl)c1`, the Potency was inconclusive: 20.6 µM [cytotoxic, single point]. In the case of `CCNC(=O)C1(C)CCCN(Cc2csc(-c3ccc(Cl)cc3)n2)C1` (centres undefined), the “activity change, negative = cytotoxicity” value is reported as inactive: -28.4%.
